In all, about 400,000 compounds went through this assay and about 5,500 (1.4%) were called active. The inconclusive results got no clear call from the source; some entries with a clear call stand among them for comparison. The call rests on the fitted dose curve; in most records, active means well fitted cell-killing curve with a large enough effect; inconclusive means small, poorly fitted or top-dose-only effect, or effect the other way; inactive means flat fitted curve, though single readings scatter. Potencies beside an inconclusive call are fits to weak or partial responses and may not hold up.
Assay: qHTS assay for MDR1-selective chemotherapeutics: Primary screen using the parental adenocarcinoma cell KB-3-1; further: nearly all actives have a fitted effect of over 60% in size
Details: KB-3-1 viability, CellTiter-Glo ATP luminescence, 72 h; activity change, negative = cytotoxic: at 46.1 µM (top of the series)
Method in brief: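 KB-3-1 cells, DMEM (no phenol red) + 10% FBS; compound by pin transfer, 72 h, 37 °C. Readout: CellTiter-Glo luminescence after 10 min. Data normalized, curve-fitted.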
On the % scale 0 is the no-effect control and ±100 the full control effect; potency means the concentration at half of the fitted maximal effect.

SMILES | Potency | activity change, negative = cytotoxic
O=C(NCCN1CCN(C(=O)c2ccc(Br)cc2)CC1)c1ccc(Br)cc1 | inconclusive: 29.1 µM [cytotoxic, single point] | 
Cc1nonc1C(=O)N/N=C/c1ccc(O)cc1 |  | inconclusive: -17.4%
Cc1cc(N/N=C\c2ccccc2)nc(-c2ccccc2O)n1 | inconclusive: 29.1 µM [cytotoxic, single point] | 
O=C(COc1ccc(S(=O)(=O)N2CCOCC2)cc1)NC1CC1 |  | inconclusive: 3.01%
COc1ccc(-c2nc(-c3ccccn3)no2)cc1 | inconclusive: 25.9 µM [cytotoxic, single point] | 
O=S(=O)(Nc1ccccc1)c1ccc(-c2cnc(C3CC3)o2)cc1 | inconclusive: 25.9 µM [cytotoxic, partial curve, poor fit] | 
COc1cc(SC)ccc1C(=O)Nc1c(Cl)cncc1Cl | inconclusive: 20.6 µM [cytotoxic, single point] | 
COc1ccc(C2=NN(C(=O)c3cccs3)C(O)(C(F)(F)F)C2)cc1 (stereo not drawn) | inconclusive: 10.3 µM [cytotoxic, partial curve, poor fit] | 
O=C(COC(=O)c1cc(S(=O)(=O)N2CCCC2)ccc1O)Nc1ccccc1Br |  | inconclusive: -26.3%
O=C(O)CNC(=S)N(Cc1ccccc1)Cc1cccnc1 |  | inconclusive: 21.7%
CCCN1CCN(C(=O)c2ccc(Sc3ccc(C)cc3)c(NC(C)=O)c2)CC1 | inactive | 
Cc1ccccc1S(=O)(=O)N(C)C[C@@H]1OCc2ccccc2-c2c(n(C)c3ccccc23)C(=O)N([C@H](C)CO)C[C@@H]1C | inconclusive: 29.1 µM [cytotoxic, single point] | 
COc1ccc(N2CCN(C(=O)c3cccc(S(=O)(=O)N4CCCc5ccccc54)c3)CC2)cc1 | inactive | 
C[C@H](CO)N1C[C@H](C)[C@@H](CN(C)Cc2ccc(-c3ccccc3)cc2)Oc2c(NC(=O)Nc3ccc4c(c3)OCO4)cccc2C1=O | inconclusive: 29.1 µM [cytotoxic, single point] | 
COC(=O)c1cc(=O)n(Cc2cccs2)c(=Nc2ccc(F)cc2)s1 | inconclusive: 29.1 µM [cytotoxic, single point] | 
O=C1CN(CC(=O)Nc2cccc(Cl)c2Cl)c2ccccc2N1 | inconclusive: 23.1 µM [cytotoxic, single point] | 
CCOC(=O)CSC1=Nc2ccccc2C2=NC(CCC(=O)NCc3ccccc3)C(=O)N12 (stereo not drawn) | inconclusive: 20.6 µM [rising, partial curve, poor fit] | 
COc1ccc(OC)c(C(=O)Cn2nnc(-c3ccc(N4CCOCC4)cc3)n2)c1 | active: 20.6 µM | 
COc1ccc(C(=O)OCC(=O)NC2CC2)cc1S(=O)(=O)N1CCOCC1 | inconclusive: 29.1 µM [rising, single point] | 
COc1cccc(C(c2nnnn2C(C)(C)C)N2CCN(C/C=C/c3ccccc3)CC2)c1OC (stereo not drawn) | inactive | 
CN(C)CCCCCCNc1cc(N2CCN(C)CC2)ncn1 | inactive | 
COc1ccccc1C(=O)Nc1nc2ccccc2[nH]1 | active: 2.31 µM | 

SMILES | Potency | activity change, negative = cytotoxic
O=c1oc2c(CN3CCOCC3)c(O)c(Cl)cc2c2c1CCCC2 | inactive | 
C=CCNC(=O)C1CCN(S(=O)(=O)c2ccc(Br)cc2)CC1 | inconclusive: 25.9 µM [cytotoxic, single point] | 
O=C(CSc1nnc(-c2cccs2)o1)Oc1ccc(Cl)cc1 | inactive | 
CCN1CCc2c(C#N)c(NCc3ccccc3)nc(NCCO)c2C1 | inconclusive: 29.1 µM [rising, single point] | 
CN(Cc1ccccc1)C(=O)C1CCC(CNS(=O)(=O)c2cccc3cccnc23)CC1 (stereo not drawn) | inactive | 
O=c1cc(Cc2ccc([N+](=O)[O-])cc2)[nH]c(=O)[nH]1 | inactive | 
CSc1cccc(NC(=O)C2CCN(S(=O)(=O)c3ccc4[nH]c(=O)ccc4c3)CC2)c1 | inconclusive: 0.013 µM [cytotoxic, full curve] | 
N=c1c(C(=O)NC2CCCC2)cc2c(=O)n3ccccc3nc2n1C1CCCC1 | inconclusive: 7.08 µM [cytotoxic, partial curve, poor fit] | 
Cc1cccc(N(C(=O)c2csnn2)C(C(=O)NCc2ccccc2)c2ccncc2)c1 (stereo not drawn) |  | inconclusive: 0%
CC[C@]12CCCN3CCc4c(n(c5ccccc45)C(=O)C1)C32 (stereo partly drawn) | inconclusive: 29.1 µM [cytotoxic, single point] | 
CCCC(O)(c1ccc(OC)cc1)C(CN1CCOCC1)c1ccc(Cl)cc1 (stereo not drawn) | inconclusive: 18.4 µM [cytotoxic, partial curve] | 
CCOc1c(Br)cc(C(=O)Nc2cccc(S(=O)(=O)N3CCOCC3)c2)cc1OC | inactive | 
O=C1C(Cl)=C(N2CCN(c3ccccc3[N+](=O)[O-])CC2)C(=O)c2ccccc21 | inconclusive: 29.1 µM [cytotoxic, single point] | 
CC(C)c1ccc(S(=O)(=O)Nc2ccc(O)c(Sc3nc4ccccc4s3)c2)cc1 | inconclusive: 32.6 µM [cytotoxic, single point] | 
CSc1ccc(Cn2c(C)c(C(=O)NCc3ccc4c(c3)OCO4)sc2=O)cc1 | inconclusive: 18.4 µM [cytotoxic, single point] | 
Cc1sc2ncnc(N3CCC(C(=O)Nc4nc(-c5cccs5)cs4)CC3)c2c1C | inconclusive: 18.4 µM [cytotoxic, single point] | 
CN(C)c1ccc(C2CNC(c3ccc(Cl)c([N+](=O)[O-])c3)c3[nH]c4ccccc4c32)cc1 (stereo not drawn) | inconclusive: 20.6 µM [cytotoxic, partial curve, poor fit] | 
CSc1ccc(CN2CCC(CO)(CCOc3ccccc3)CC2)cc1 | inactive | 
CC1CCCN(S(=O)(=O)c2ccc(NC(=O)CNC3CCCC3)cc2)C1 (stereo not drawn) | inconclusive: 32.6 µM [cytotoxic, single point] | 
Cc1ccc(S(=O)(=O)N2CCN(c3ccc4nnc(-c5ccccc5)n4n3)CC2)cc1 | inactive | 
O=C1CCCN1c1ccc(S(=O)(=O)N2CCN(c3ccccn3)CC2)cc1 | inconclusive: 29.1 µM [cytotoxic, single point] | 

Among those listed so far, two have fluorine.
SMILES | Potency | activity change, negative = cytotoxic
COc1ccc(C2=NN(C(=O)c3cccs3)C(O)(C(F)(F)F)C2)cc1 (stereo not drawn) | inconclusive: 10.3 µM [cytotoxic, partial curve, poor fit] | 
COC(=O)c1cc(=O)n(Cc2cccs2)c(=Nc2ccc(F)cc2)s1 | inconclusive: 29.1 µM [cytotoxic, single point] | 

Source: PubChem BioAssay AID1347075 (National Center for Advancing Translational Sciences (NCATS), 2019)
